# Record: PubChem BioAssay AID1508588 (Peter MacCallum Cancer Centre, 2020)
# Screen: 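Genome-wide search for knock-downs that heighten vemurafenib action in melanoma cells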 (primary screen)
# Cells: human WM266.4 melanoma cells (BRAF V600 mutant)
# Knock-down reagent: siRNA pool against human genes, 40 nM
# Duration: 96 h from transfection to read-out
# Conditions: vemurafenib 300 nM (about IC25), added 48 h after transfection, for 48 h; comparison arm got DMSO vehicle only
# Measured: 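Ratios to non-targeting siRNA for cell gain, counted as DAPI nuclei after minus before drug and averaged over two replicates, and for absorbance-read medium lactate per cell; both binned into fold-change classes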
# Scale: cell gain with vemurafenib: higher = more cell gain than with non-targeting siRNA; lactate per cell with vemurafenib: higher = more lactate made per cell
# Call rule: 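a knock-down counts as enhancing when its fold-change classes with vehicle and with vemurafenib, taken together, show a stronger drug effect on cell gain or lactate per cell; exact class pairs not stated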
# Meaning of the calls: active = enhances vemurafenib effect; inactive = no enhancement seen
# This is one part, drawn at random, of about 18,000 deposited reagents. 790 of all reagents (4.4%) were called active. 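Calls rest on a combination of fold-change classes in drug and vehicle arms, not all shown here.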 Entries without a mark were called inactive.
Gene,cell gain with vemurafenib,lactate per cell with vemurafenib
KRT222,1.1,1.06
CMC1,0.25,0.92
SCN1B,0.42,1.34
EIF4ENIF1,0.78,1.05
LRRC37B,0.8,0.81
KLHL17,1,1.04
SEPTIN1,0.95,0.4
C17orf75,0.66 (active),0.63
YTHDF2,0.41 (active),0.44
HECTD2,0.93 (active),0.44
ADIRF,0.32 (active),0.45
SIGIRR,0.96,0.61
TAP1,0.37,0.76
RSRC1,0.09,0.74
CNDP2,0.8,0.54
C6orf118,0.39,0.59
NCKAP1,0.77,1.52
L2HGDH,0.46 (active),0.14
GH1,0.82,1.02

Records listed so far whose gene name starts with C or c (4):
Gene,cell gain with vemurafenib,lactate per cell with vemurafenib
CMC1,0.25,0.92
C17orf75,0.66 (active),0.63
CNDP2,0.8,0.54
C6orf118,0.39,0.59

The listing continues.
Gene,cell gain with vemurafenib,lactate per cell with vemurafenib
CDKL4,0.56,0.7
OVOL1,0.53,1.25
GBP7,0.63,0.34
ESPN,0.23,1.56
DNAAF5,0.82,0.74
RGL4,0.49,1.56
LIN52,0.22,0.83
MRPL28,0.7,0.75
CAMK1,0.22,1.83
GNG4,0.74,0.68
IFT70B,1.05,0.44
IVNS1ABP,-0.11,3
PPARD,0.59,0.99
FBRS,0.27,1.1
MATCAP2,0.98,0.46
